Data as given in PubChem BioAssay AID504808 (Drosophila RNAi Screening Center, 2011)
Aim: 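Genes whose loss lifts activity of an E2F-responsive reporter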 (primary screen). Cell system: Drosophila S2 cells. Knock-down reagent: long dsRNA against Drosophila genes. Measured: 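Dual luciferase plate measurements; E2F-specific signal taken as firefly over Renilla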. Direction: E2F firefly: higher = more E2F reporter activity; Renilla normaliser: higher = more normaliser reporter signal. Rule for the call: 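Called active if the normalised E2F reporter went up by over 50%; the cutoff is arbitrary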.
The deposit covers about 21,000 reagents; below is an unselected part of those that have a named target and a result. Of all reagents, 18 (0.084%) got an active call. 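Raw counts without plate normalisation, one of two replicates; the ratio scores behind the calls were not deposited.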 Reagents against one gene are numbered here. A plus sign joins genes that one reagent is predicted to hit. Reagent sequences are not shown. Not given: the amount of reagent, the time to read-out.

CG17239 (GeneID 59224): E2F firefly, rep 1 = 1.64e5; Renilla normaliser, rep 1 = 5830; Call = inactive
CG12056 (GeneID 31855): E2F firefly, rep 1 = 7572; Renilla normaliser, rep 1 = 864; Call = inactive
CG1979 (GeneID 40837): E2F firefly, rep 1 = 74226; Renilla normaliser, rep 1 = 3585; Call = inactive
CG42713 (GeneID 10178890): E2F firefly, rep 1 = 1.39e5; Renilla normaliser, rep 1 = 6482; Call = inactive
Sgs3 (GeneID 39288): E2F firefly, rep 1 = 1.34e5; Renilla normaliser, rep 1 = 6102; Call = inactive
Ir10a (GeneID 32067) #1: E2F firefly, rep 1 = 84338; Renilla normaliser, rep 1 = 2835; Call = inactive
Ir10a (GeneID 32067) #2: E2F firefly, rep 1 = 1.15e5; Renilla normaliser, rep 1 = 5069; Call = inactive
Ir10a (GeneID 32067) #3: E2F firefly, rep 1 = 1.19e5; Renilla normaliser, rep 1 = 5495; Call = inactive
CG32445 (GeneID 261603): E2F firefly, rep 1 = 1.11e5; Renilla normaliser, rep 1 = 7719; Call = inactive
CG33099 (GeneID 326254): E2F firefly, rep 1 = 65225; Renilla normaliser, rep 1 = 3168; Call = inactive
CG8112 (GeneID 41033): E2F firefly, rep 1 = 1.18e5; Renilla normaliser, rep 1 = 6405; Call = inactive
CG16736 (GeneID 41101): E2F firefly, rep 1 = 1.28e5; Renilla normaliser, rep 1 = 5498; Call = inactive
CG32199 (GeneID 40028): E2F firefly, rep 1 = 1.67e5; Renilla normaliser, rep 1 = 8160; Call = inactive
Mrtf (GeneID 38338) #1: E2F firefly, rep 1 = 80667; Renilla normaliser, rep 1 = 3670; Call = inactive
Mrtf (GeneID 38338) #2: E2F firefly, rep 1 = 91481; Renilla normaliser, rep 1 = 3932; Call = inactive
Mrtf (GeneID 38338) #3: E2F firefly, rep 1 = 97140; Renilla normaliser, rep 1 = 4048; Call = inactive
Sesn (GeneID 37755) #1: E2F firefly, rep 1 = 76871; Renilla normaliser, rep 1 = 3615; Call = inactive
Sesn (GeneID 37755) #2: E2F firefly, rep 1 = 1.12e5; Renilla normaliser, rep 1 = 4731; Call = inactive
Sesn (GeneID 37755) #3: E2F firefly, rep 1 = 89934; Renilla normaliser, rep 1 = 3565; Call = inactive
CG2217 + CG42740: E2F firefly, rep 1 = 1754; Renilla normaliser, rep 1 = 972; Call = inactive
Hsdl2 (GeneID 43325): E2F firefly, rep 1 = 1621; Renilla normaliser, rep 1 = 852; Call = inactive
lok (GeneID 35288): E2F firefly, rep 1 = 96884; Renilla normaliser, rep 1 = 3318; Call = inactive
Mal-A2 (GeneID 35825): E2F firefly, rep 1 = 1.31e5; Renilla normaliser, rep 1 = 4629; Call = inactive
Cpr65Eb (GeneID 38774): E2F firefly, rep 1 = 90603; Renilla normaliser, rep 1 = 3965; Call = inactive
CG31915 (GeneID 319025): E2F firefly, rep 1 = 1.47e5; Renilla normaliser, rep 1 = 5344; Call = inactive
CG31253 + CG31131: E2F firefly, rep 1 = 99246; Renilla normaliser, rep 1 = 2918; Call = inactive
Rtnl1 (GeneID 33721) #1: E2F firefly, rep 1 = 1.32e5; Renilla normaliser, rep 1 = 6100; Call = inactive
Rtnl1 (GeneID 33721) #2: E2F firefly, rep 1 = 86538; Renilla normaliser, rep 1 = 3382; Call = inactive
Rtnl1 (GeneID 33721) #3: E2F firefly, rep 1 = 90904; Renilla normaliser, rep 1 = 3920; Call = inactive

A run of entries from the list above:
lok (GeneID 35288): E2F firefly, rep 1 = 96884; Renilla normaliser, rep 1 = 3318; Call = inactive
Mal-A2 (GeneID 35825): E2F firefly, rep 1 = 1.31e5; Renilla normaliser, rep 1 = 4629; Call = inactive
